Assay results reported in patent US10912763B2 (priority 2010, dated 2021).

System: painful diabetic neuropathy
Conditions: both, human, in vivo

In the case of CN1CC[C@]23c4c5ccc(O)c4O[C@H]2[C@@H](O)C=C[C@H]3[C@H]1C5 [morphine], the “TEAEs (%) ECG QT prolonged” value is reported as 0%.
